The values below come from patent US20080038735A1.

Results are given in words; binding and its absence hold for the method and conditions named.

In this assay the target is cytokine A. The experiment in a line: ELISA: in vitro translated dAb-Tus-HA fusion (pIE7t3T) captured on anti-HA, biotinylated cytokine A, strep-HRP. In general terms: In an ELISA, binding on a coated surface is turned into a signal by an enzyme label.

B1: Vk(E5) (protein)
VL: MASTDIQMTQSPSSLSASVGDRVTITCRASQSVSSYLNWYQQKPGKAPKLLIYLASRLQSGVPSRFSGSGSGTDFTLTISSLQPEDFATYYCQQNWWLPPTFGQGTKVEIKRAA
Consider B1, for which the binding entry was “no binding (tested: 100 nM (from the text))”.
